Assay results reported in publication PMC5868994.
Read-outs that look alike come from different tables or passages of the source. These are yes or no findings as the source states them, for the method shown. For part of these data: Binding seen in cells or lysates may run through a third protein. Some entries that bind do so weakly or less than the wild type. Tags and fused reporters may be left off the sequences shown.

Sequences of proteins named here, by UniProt entry; tags and fusion partners are left off.
UniProt Q8W234: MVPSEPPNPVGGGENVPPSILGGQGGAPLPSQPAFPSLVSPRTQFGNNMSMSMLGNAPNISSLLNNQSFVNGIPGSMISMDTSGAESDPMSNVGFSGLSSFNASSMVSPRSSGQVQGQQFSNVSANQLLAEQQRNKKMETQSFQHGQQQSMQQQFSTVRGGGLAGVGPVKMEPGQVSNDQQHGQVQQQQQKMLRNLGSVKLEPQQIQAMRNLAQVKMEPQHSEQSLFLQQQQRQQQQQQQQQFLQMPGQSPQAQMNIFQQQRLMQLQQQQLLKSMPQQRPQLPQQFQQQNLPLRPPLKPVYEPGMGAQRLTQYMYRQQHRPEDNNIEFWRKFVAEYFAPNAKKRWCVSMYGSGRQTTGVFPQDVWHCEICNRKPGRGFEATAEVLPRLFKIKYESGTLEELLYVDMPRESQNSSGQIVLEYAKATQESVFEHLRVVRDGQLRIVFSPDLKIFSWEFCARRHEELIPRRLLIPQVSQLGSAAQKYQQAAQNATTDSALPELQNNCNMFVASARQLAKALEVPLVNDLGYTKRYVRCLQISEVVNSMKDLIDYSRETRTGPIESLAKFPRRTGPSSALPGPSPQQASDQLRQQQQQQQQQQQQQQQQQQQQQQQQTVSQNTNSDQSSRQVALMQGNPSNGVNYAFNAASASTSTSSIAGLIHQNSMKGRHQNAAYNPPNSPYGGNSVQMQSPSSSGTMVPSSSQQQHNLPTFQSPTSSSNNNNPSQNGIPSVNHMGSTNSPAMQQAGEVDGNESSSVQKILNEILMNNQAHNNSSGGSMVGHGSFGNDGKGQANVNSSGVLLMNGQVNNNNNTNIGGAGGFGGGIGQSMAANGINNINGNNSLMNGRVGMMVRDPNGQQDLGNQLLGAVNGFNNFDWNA

Columns and labels:
[1] = biological target: T1, …, Arabidopsis, yeast two-hybrid fusion (Arabidopsis thaliana) (UniProt O81313); test: two-hybrid; GAL4 system (pGADT7, pGBKT7), yeast strain AH109, co-transformation, 28°C; selective medium -W-L-H-A, with different concentrations of 3-aminotriazole
T1 sequence: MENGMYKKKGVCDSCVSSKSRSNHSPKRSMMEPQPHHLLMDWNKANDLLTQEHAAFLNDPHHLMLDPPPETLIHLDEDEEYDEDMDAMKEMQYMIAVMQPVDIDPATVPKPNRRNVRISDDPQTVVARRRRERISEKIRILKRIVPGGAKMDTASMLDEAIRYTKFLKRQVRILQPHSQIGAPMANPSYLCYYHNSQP

[2] = biological target: T2, B…US (BP/KNOTTED-LIKE ARABIDOPSIS THALIANA1), Arabidopsis, yeast two-hybrid fusion (Arabidopsis thaliana) (UniProt P46639); test: as above
T2 sequence: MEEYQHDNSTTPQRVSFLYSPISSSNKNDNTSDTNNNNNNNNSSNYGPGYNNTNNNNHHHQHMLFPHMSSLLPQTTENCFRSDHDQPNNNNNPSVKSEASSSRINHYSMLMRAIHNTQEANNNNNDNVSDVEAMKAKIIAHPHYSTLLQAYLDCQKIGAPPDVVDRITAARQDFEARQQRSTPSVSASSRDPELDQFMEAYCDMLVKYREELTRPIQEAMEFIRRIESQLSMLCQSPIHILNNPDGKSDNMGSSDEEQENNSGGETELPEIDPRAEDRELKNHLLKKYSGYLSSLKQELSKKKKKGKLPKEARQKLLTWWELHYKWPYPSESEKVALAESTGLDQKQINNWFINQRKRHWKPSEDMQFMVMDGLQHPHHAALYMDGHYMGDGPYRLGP

[3] = biological target: T3, B…US (BP/KNOTTED-LIKE ARABIDOPSIS THALIANA1), Arabidopsis, BiFC fusion (Arabidopsis thaliana) (UniProt P46639); test: split reporter; BiFC with YFP halves (pYFPN43, pYFPC43) in tobacco leaf epidermis cells, with p19 silencing suppressor; images 72 h after infiltration
T3 sequence: T2 sequence

[4] = biological target: T4, …, Arabidopsis, BiFC fusion (Arabidopsis thaliana) (UniProt O81313); test: as above
T4 sequence: T1 sequence

[5] = biological target: T3, B…US (BP/KNOTTED-LIKE ARABIDOPSIS THALIANA1), Arabidopsis, BiFC fusion (Arabidopsis thaliana); test: as above; remark: listed apart in the source
[6] = biological target: T2, B…US (BP/KNOTTED-LIKE ARABIDOPSIS THALIANA1), Arabidopsis, yeast two-hybrid fusion (Arabidopsis thaliana); test: two-hybrid; GAL4 system (pGADT7, pGBKT7), yeast strain AH109, co-transformation, 28°C; selective medium -W-L-H-A, with different concentrations of 3-aminotriazole; remark: listed apart in the source

SEUSS, Arabidopsis, yeast two-hybrid fusion (from UniProt Q8W234 1-877)
binding [1]: binds
binding [2]: binds

SEUSS, Arabidopsis, BiFC fusion (from UniProt Q8W234 1-877)
binding [3]: binds
binding [4]: binds

B1: …, Arabidopsis, BiFC fusion (protein, UniProt O81313 1-198)
chain: T1 sequence
binding [5]: binds

B2: …, Arabidopsis, yeast two-hybrid fusion (protein, UniProt O81313 1-198)
chain: T1 sequence
binding [6]: binds
